The source of these data is PMC3247243.

By UniProt entry, the sequences of proteins in these tests, tags left out. Where a name states a change or a piece, a line headed by the entry shows the natural chain unless it says otherwise.
UniProt Q8WX93: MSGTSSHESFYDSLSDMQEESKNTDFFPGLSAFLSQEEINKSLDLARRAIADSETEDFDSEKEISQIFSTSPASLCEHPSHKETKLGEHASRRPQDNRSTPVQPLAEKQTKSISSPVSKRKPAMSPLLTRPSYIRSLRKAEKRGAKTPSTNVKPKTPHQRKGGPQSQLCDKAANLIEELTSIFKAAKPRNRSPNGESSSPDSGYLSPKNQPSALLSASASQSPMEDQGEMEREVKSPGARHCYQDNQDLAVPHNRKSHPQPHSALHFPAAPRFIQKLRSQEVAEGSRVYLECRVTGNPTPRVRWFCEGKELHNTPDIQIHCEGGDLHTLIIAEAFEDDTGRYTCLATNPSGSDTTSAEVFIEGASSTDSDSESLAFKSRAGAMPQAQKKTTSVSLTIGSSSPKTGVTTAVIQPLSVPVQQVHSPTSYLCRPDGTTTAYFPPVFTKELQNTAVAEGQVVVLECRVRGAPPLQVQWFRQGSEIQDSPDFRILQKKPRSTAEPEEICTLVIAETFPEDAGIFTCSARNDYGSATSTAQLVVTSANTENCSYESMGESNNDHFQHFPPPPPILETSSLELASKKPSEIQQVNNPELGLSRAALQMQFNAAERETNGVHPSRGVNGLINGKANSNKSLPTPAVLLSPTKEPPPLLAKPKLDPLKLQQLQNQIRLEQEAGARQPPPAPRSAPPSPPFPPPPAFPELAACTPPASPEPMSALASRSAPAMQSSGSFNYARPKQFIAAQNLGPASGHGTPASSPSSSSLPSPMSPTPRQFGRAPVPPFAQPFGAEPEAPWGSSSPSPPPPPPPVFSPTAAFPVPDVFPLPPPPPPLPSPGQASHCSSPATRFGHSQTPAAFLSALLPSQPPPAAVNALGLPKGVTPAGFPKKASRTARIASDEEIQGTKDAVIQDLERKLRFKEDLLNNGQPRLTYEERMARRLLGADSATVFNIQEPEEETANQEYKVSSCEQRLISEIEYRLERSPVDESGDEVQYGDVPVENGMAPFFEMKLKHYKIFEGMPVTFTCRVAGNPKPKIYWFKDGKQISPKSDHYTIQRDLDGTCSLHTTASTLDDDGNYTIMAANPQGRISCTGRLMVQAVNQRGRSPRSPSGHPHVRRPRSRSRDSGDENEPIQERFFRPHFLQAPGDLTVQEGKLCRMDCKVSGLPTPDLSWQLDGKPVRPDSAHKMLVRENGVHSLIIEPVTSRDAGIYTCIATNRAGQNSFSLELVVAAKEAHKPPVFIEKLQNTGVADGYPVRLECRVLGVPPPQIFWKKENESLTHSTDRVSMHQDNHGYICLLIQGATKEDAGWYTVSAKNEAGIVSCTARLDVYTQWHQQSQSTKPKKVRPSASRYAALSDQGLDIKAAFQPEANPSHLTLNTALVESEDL
UniProt P00519: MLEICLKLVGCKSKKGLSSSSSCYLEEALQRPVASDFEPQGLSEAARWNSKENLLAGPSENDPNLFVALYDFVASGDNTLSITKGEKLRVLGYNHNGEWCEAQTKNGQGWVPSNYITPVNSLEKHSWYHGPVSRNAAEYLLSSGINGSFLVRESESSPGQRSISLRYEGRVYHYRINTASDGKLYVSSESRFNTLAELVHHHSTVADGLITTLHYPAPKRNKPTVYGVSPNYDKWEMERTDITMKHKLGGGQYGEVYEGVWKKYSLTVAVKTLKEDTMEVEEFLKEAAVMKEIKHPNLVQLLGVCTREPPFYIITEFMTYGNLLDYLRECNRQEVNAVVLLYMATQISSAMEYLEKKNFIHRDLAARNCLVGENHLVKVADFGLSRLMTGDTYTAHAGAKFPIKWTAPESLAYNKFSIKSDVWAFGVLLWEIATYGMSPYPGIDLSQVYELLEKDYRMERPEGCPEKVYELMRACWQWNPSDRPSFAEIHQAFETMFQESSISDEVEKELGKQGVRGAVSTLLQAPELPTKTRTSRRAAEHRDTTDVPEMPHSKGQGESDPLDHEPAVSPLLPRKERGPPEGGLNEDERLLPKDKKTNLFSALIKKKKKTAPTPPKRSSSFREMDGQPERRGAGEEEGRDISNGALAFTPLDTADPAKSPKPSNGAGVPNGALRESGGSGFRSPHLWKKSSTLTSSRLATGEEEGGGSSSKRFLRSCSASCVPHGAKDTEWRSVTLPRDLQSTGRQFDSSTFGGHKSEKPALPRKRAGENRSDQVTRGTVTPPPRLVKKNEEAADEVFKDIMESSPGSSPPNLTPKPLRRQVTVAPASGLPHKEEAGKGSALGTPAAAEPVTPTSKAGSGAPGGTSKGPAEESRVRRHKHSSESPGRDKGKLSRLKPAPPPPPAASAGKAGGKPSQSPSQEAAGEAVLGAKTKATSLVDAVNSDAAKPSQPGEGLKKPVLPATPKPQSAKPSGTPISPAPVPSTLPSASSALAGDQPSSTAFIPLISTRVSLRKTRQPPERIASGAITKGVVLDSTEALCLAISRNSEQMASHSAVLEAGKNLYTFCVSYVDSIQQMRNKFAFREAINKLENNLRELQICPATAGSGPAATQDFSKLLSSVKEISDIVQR

This test deals with endogenous palladin (human (endogenous in MDA-MB-231)) (UniProt Q8WX93). Kind of test: co-IP; MDA-MB-231 lysates immunoprecipitated with anti-palladin antibody or control IgG, blotted with anti-Abl and anti-palladin; also serum-starved cells with or without EGF stimulation.

These are yes or no findings as the source states them, for the method shown. In cells and extracts the contact can be indirect. Binding can be weak; no strength is given.

Consider “endogenous Abl tyrosine kinase (from UniProt P00519 1-1130) (enzyme)”, for which the binding entry is reported as “binds”.
